This note sets out measurements from PMC9581534.

Sequences of proteins named here, by UniProt entry; tags and fusion partners are left off. A change or cut given only in a name is not applied to a line headed by its entry.
UniProt P16070: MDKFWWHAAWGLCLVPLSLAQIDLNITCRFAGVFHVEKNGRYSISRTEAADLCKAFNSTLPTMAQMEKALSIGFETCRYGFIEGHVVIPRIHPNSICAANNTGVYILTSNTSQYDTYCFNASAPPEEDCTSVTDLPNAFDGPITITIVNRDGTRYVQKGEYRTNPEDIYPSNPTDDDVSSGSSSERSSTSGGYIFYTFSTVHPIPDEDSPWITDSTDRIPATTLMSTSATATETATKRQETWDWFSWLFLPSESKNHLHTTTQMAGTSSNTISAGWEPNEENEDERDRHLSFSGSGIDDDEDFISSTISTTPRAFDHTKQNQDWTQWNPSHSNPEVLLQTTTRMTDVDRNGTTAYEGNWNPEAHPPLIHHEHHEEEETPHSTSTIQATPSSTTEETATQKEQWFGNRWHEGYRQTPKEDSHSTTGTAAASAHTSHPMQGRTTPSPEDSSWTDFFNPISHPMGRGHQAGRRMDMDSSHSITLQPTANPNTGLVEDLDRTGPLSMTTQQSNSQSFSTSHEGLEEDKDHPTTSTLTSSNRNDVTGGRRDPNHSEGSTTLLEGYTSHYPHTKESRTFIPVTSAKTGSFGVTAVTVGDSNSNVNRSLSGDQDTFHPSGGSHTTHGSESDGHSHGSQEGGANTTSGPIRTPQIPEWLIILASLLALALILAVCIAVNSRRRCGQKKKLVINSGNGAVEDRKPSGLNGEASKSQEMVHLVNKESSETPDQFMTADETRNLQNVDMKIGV

Results are given in words; binding and its absence hold for the method and conditions named. Binding seen in cells or lysates may run through a third protein. A result given as binding can be weak or reduced; the word gives no strength. Tags and fused reporters may be left off the sequences shown.

The experiment deals with Flag-tagged CD44 mutant CD44.m2 (point mutations in domain II) (human) (UniProt P16070). The experiment can be described thus: co-IP; HEK293ft cells co-transfected with Flag-CD44 (WT or mutant) and HA-CD81 (WT or CD81d), harvested after 48 h; 200 µg lysate on anti-FLAG M2 magnetic beads overnight, glycine elution, immunoblot.

B1: HA-tagged CD81 (wild type), expressed in HEK293ft cells (protein, UniProt P60033 1-236)
chain: MGVEGCTKCIKYLLFVFNFVFWLAGGVILGVALWLRHDPQTTNLLYLELGDKPAPNTFYVGIYILIAVGAVMMFVGFLGCYGAIQESQCLLGTFFTCLVILFACEVAAGIWGFVNKDQIAKDVKQFYDQALQQAVVDDDANNAKAVVKTFHETLDCCGSSTLTALTTSVLKNNLCPSGSNIISNLFKEDCHQKIDDLFSGKLYLIGIAAIVVAVIMIFEMILSMVLCCGIRNSSVY
For the molecule B1, the binding result was “binds”.
